Chains of the proteins cited; added tags and fusions are not shown.
UniProt P16370: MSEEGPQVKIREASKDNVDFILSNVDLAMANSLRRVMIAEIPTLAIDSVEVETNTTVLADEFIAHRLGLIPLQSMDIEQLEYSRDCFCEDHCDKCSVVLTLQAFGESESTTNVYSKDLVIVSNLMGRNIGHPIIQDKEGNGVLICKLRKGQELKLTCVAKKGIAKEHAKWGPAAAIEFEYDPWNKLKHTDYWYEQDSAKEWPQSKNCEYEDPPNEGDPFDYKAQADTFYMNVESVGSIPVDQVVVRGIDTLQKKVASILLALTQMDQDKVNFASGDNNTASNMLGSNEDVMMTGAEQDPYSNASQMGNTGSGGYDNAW

According to PMC8511950:

Target: Rpb3 with C-terminal BioTAP tag (S. cerevisiae) (UniProt P16370)
Assay: affinity purification with mass spectrometry; BioTAP-XL two-step purification of Rpb3-BioTAP (IgG beads, then streptavidin agarose) from 1% formaldehyde-cross-linked wildtype and spt6-1004 cells shifted to 37 °C for 80 min; on-bead trypsin digestion, TMT labelling, MS3 quantification; untagged wildtype and spt6-1004 cells as controls; FDR cutoff 0.05

Binder	binding
Rep1 (protein, UniProt P03871 1-373) MNGERLLACIKQCIMQHFQPMVYDESRCVIETTRGTFPVPDNYKKYKTLAFAFVGHVLNTDDTPVIEKELDWPDPALVYNTIVDRIINHPELSQFISVAFISQLKATIGEGLDINVKGTLNRRGKGIRRPKGVFFRYMESPFVNTKVTAFFSYLRDYNKIASEYHNNTKFILTFSCQAYWASGPNFSALKNVIRCSIIHEYISKFVEREQDKGHIGDQELPPEEDPSRELNNVQHEVNSLTEQDAEADEGLWGEIDSLCEKWQSEAEDQTEAEIIADRIIGNSQRMANLKIRRTKFKSVLYHILKELIQSQGTVKVYRGSSFSHDSIKISLHYEEQHITAVWVYLTVKFEEHWKPVDVEVEFRCKFKERKVDG	binds
Ebp2 (protein, UniProt P36049 1-427) MAKGFKLKELLSHQKEIEKAEKLENDLKKKKSQELKKEEPTIVTASNLKKLEKKEKKADVKKEVAADTEEYQSQALSKKEKRKLKKELKKMQEQDATEAQKHMSGDEDESGDDREEEEEEEEEEEGRLDLEKLAKSDSESEDDSESENDSEEDEDVVAKEESEEKEEQEEEQDVPLSDVEFDSDADVVPHHKLTVNNTKAMKHALERVQLPWKKHSFQEHQSVTSETNTDEHIKDIYDDTERELAFYKQSLDAVLVARDELKRLKVPFKRPLDYFAEMVKSDEHMDKIKGKLIEEASDKKAREEARRQRQLKKFGKQVQNATLQKRQLEKRETLEKIKSLKNKRKHNEIDHSEFNVGVEEEVEGKRFDRGRPNGKRAAKNAKYGQGGMKRFKRKNDATSSADVSGFSSRKMKGKTNRPGKSRRARRF	binds
Nqm1 (protein, UniProt P53228 1-333) MSEPSEKKQKVATSSLEQLKKAGTHVVADSGDFEAISKYEPQDSTTNPSLILAASKLEKYARFIDAAVEYGRKHGKTDHEKIENAMDKILVEFGTQILKVVPGRVSTEVDARLSFDKKATVKKALHIIKLYKDAGVPKERVLIKIASTWEGIQAARELEVKHGIHCNMTLLFSFTQAVACAEANVTLISPFVGRIMDFYKALSGKDYTAETDPGVLSVKKIYSYYKRHGYATEVMAASFRNLDELKALAGIDNMTLPLNLLEQLYESTDPIENKLNSESAKEEGVEKVSFINDEPHFRYVLNEDQMATEKLSDGIRKFSADIEALYKLVEEKM	binds
Rep2 (protein, UniProt P03872 1-296) MDDIETAKNLTVKARTAYSVWDVCRLFIEMIAPDVDIDIESKRKSDELLFPGYVIRPMESLTTGRPYGLDSSAEDSSVSSDSSAEVILPAAKMVKERFDSIGNGMLSSQEASQAAIDLMLQNNKLLDNRKQLYKSIAIIIGRLPEKDKKRATEMLMRKMDCTQLLVPPAPTEEDVMKLVSVVTQLLTLVPPDRQAALIGDLFIPESLKDIFNSFNELAAENRLQQKKSELEGRTEVNHANTNEEVPSRRTRSRDTNARGAYKLQNTITEGPKAVPTKKRRVATRVRGRKSRNTSRV	binds
Rex3 (protein, UniProt Q12090 1-404) MGSLLRPVDLVNQPLGFQERYKILQKLFKQLQKAYAHTKGTNIDLERLATRLEVHVAKNSLSGQSYKFNMSILLRDVLKYKGDLSKIKINGRPLKGAKPHLSSIGNANSITTKSKAMEALKALILDSKVLEKNGYIVKEMQNKTNDDNSTQLYAPCLRCSSNFKKTDIMEKTLCRYHPLKRIYNRDTKNHQYPCCGETTDSVSFLRLGCKTFFHHVFRGESYDELCKISKFSSTDDIDGVENVLSLDCEMAFTSLGYEMIRLTIVDFFTGKTLFDHVIQPIGDIVDLNSDFSGVHEIDRTNCPTYKEALDVFLSENLINKNSILIGHGLENDLNVMRLFHNKVIDTAILYSRTKFKVSLKNLAFEVLSRKIQNGEHDSSQDAIATMDVVKVKIGISPSQNKWEK	binds
Gga1 (protein, UniProt Q06336 1-557) MPQRIELTSEPVRKPRSTESSLLRKIQRACRSTLPEPDLGLNLDVADYINSKQGATPREAVLAIEKLVNNGDTQAAVFALSLLDVLVKNCGYSIHLQISRKEFLNDLVKRFPEQPPLRYSKVQQMILEAIEEWYQTICKHASYKDDLQYINDMHKLLKYKGYTFPKVGSENLAVLRPNDQLRTPSELQEEQERAQAAKLEELLRSGKPDDLKEANKLMKIMAGFKDDTKVAVKQAINNELNKLKRKADLFNEMLTSADEPDLENEAIQELYGDLKSAQPKFKKLIEEERDDDALVSNLSKFNDLVIQLLKRYKSIKGMKEEELNVPDTNEPAKELNLIDFDDDTTANTPSVTSPSKSLQPFDDLLGDFNKVSLSSPKSPQENDTVVDILGDAHSKSSGIDLLDFDSQPGESKTALSAYSNSIVLPNGLLNSSSNSKEITAQSQRHILNQSDHLRIDYELTRESMTKLRLVIFYSNISSDPITNFALLVASPKGTTLSLQPQSGNMLQSNSRDGIKQIASVEGISVNLGKPIKLKWKANYCTKGDSKEESGTTSLPTI	binds
Orc4 (protein, UniProt P54791 1-529) MTISEARLSPQVNLLPIKRHSNEEVEETAAILKKRTIDNEKCKDSDPGFGSLQRRLLQQLYGTLPTDEKIIFTYLQDCQQEIDRIIKQSIIQKESHSVILVGPRQSYKTYLLDYELSLLQQSYKEQFITIRLNGFIHSEQTAINGIATQLEQQLQKIHGSEEKIDDTSLETISSGSLTEVFEKILLLLDSTTKTRNEDSGEVDRESITKITVVFIFDEIDTFAGPVRQTLLYNLFDMVEHSRVPVCIFGCTTKLNILEYLEKRVKSRFSQRVIYMPQIQNLDDMVDAVRNLLTVRSEISPWVSQWNETLEKELSDPRSNLNRHIRMNFETFRSLPTLKNSIIPLVATSKNFGSLCTAIKSCSFLDIYNKNQLSNNLTGRLQSLSDLELAILISAARVALRAKDGSFNFNLAYAEYEKMIKAINSRIPTVAPTTNVGTGQSTFSIDNTIKLWLKKDVKNVWENLVQLDFFTEKSAVGLRDNATAAFYASNYQFQGTMIPFDLRSYQMQIILQELRRIIPKSNMYYSWTQL	binds
Rpl8B (protein, UniProt P29453 1-256) MAPGKKVAPAPFGAKSTKSNKAKNPLTHSTPKNFGIGQAVQPKRNLSRYVKWPEYVRLQRQKKILSIRLKVPPTIAQFQYTLDRNTAAETFKLFNKYRPETAAEKKERLTKEAAAIAEGKSKQDASPKPYAVKYGLNHVVSLIENKKAKLVLIANDVDPIELVVFLPALCKKMGVPYAIIKGKARLGTLVNQKTSAVAALTEVRAEDEAALAKLVSTIDANFADKYDEVKKHWGGGILGNKAQAKMDKRAKTSDSA	binds
Bur2 (protein, UniProt Q05949 1-395) MSATSSSGDVKKFQAVPKPTSNASPPPASSGFNARTLWPDLIETPENQWVFECKDIIEKIGTNGPIAVEIKKNMEKCLMYFYTLKKKLNLFDHTYTASCILFYRYWFIYGIPTAITECIHISQGILVTACKTMENNRPIEAYIKATCEFLMQNIPSLKSRTNIDKLKWEFRDKLVTNEKKILCLFGFDLNISNPKELIEEVFSGYYRFNRDHNLPENFKKAFPKILQESRNFMVQAVTQPVSLLCDGYTFIVLSLIYCGLEYKKLVDKDFRYPKNFFKDRFPIEVTPENFANIFTDYKLLEENFFNLKSNKGAKLQIDSSMIDSVIDESGDVENEVSEISDPFNYELIKSGEVKEEFLNHIETRVKDLLDKAKQESMKRKAKDPIRTPDAKKPKI	binds

Further lines, results first:

binding	Binder
binds	Tsr1 (protein, UniProt Q07381 1-788) MAGHSHRSSLKNGHKSYKSKHASKGALKRLYKGKVEKEPVGTGKPDKQVSKLQRKNKAKQLRAQRILDSIENRKLFEGKNGAAKIITIVPLVNDLDPLDILYKLLKCADDEGIMVQEVDSKRIFNVHIKKFKSNLKIIIPDMTNFLNILDCAKVADFVVFGLSGVQEVDEEFGEQIIRALELQGIASYIGVISNLSAVHEKEKFQLDVKQSLESYFKHFFPSEERVYNLEKNSDALNVLRTLCQRLPRSINWRDNRGYVVADFVDFVETSPDSGDLVIEGTVRGIGFNANRLVHIPDFGDFQLNKIEKISESSQKRKIIKEKATDSLSLELDLQTVFESNMNRDTLDEYAPEGTEDWSDYDEDFEYDGLTTARYDDHGFLPGREQTSKKAAVPKGTSDYQAKWYLDDVIDANEEEEAEQTNGKDETMMEIDDEMMVEQDNEEVAGDEEYDIEDNEGFEELSPEEEERQLREFRDMEKEDREFPDEIELEPSESAIERLKRYRGLKNLYNCDWQVDEKDPSSPAEWKRLLRIGNYKNTKNRIIKETKNEAQAIAGDRIRMFIRFPKFLLEKIQDPKQLLFAVYGLLLHEHKNAVVNFSLQRWEQYDKPVPSQEPIVVQYGVRRYTIQPLFSQGSNSPNNVHKYERFLHPDTVSVATCIAPVDFTQSPAIFFKPSPTDAKNIELIGHGTFLNADHSRILAKRAILTGHPFRFHKTVVTVRYMFFRPEDVEWFKSIPLFTKSGRSGFIKESLGTHGYFKATFDGKLSAQDVVAMSLYKRMWPMPSLPWNGM
binds	Tfc7 (protein, UniProt Q12415 1-435) MVVNTIYIARHGYRSNWLPEGPYPDPLTGIDSDVPLAEHGVQQAKELAHYLLSLDNQPEAAFASPFYRCLETVQPIAKLLEIPVYLERGIGEWYRPDRKPVIPVPAGYEILSKFFPGVISQEWDSTLTPNEKGETEQEMYMRFKKFWPLFIERVEKEYPNVECILLVTHAASKIALGMSLLGYDNPRMSLNENGDKIRSGSCSLDKYEILKKSYDTIDETDDQTSFTYIPFSDRKWVLTMNGNTEFLSSGEEMNWNFDCVAEAGSDADIKKRQMTKKTSSPIPEADDQTEVETVYISVDIPSGNYKERTEIAKSAILQYSGLETDAPLFRIGNRLYEGSWERLVGTELAFPNAAHVHKKTAGLLSPTEENETTNAGQSKGSSTANDPNIQIQEEDVGLPDSTNTSRDHTGDKEEVQSEKIYRIKERIVLSNVRPM
binds	Spn1 (protein, UniProt Q06505 1-410) MSTADQEQPKVVEATPEDGTASSQKSTINAENENTKQNQSMEPQETSKGTSNDTKDPDNGEKNEEAAIDENSNVEAAERKRKHISTDFSDDDLEKEEHNDQSLQPTVENRASKDRDSSATPSSRQELEEKLDRILKKPKVRRTRRDEDDLEQYLDEKILRLKDEMNIAAQLDIDTLNKRIETGDTSLIAMQKVKLLPKVVSVLSKANLADTILDNNLLQSVRIWLEPLPDGSLPSFEIQKSLFAALNDLPVKTEHLKESGLGRVVIFYTKSKRVEAQLARLAEKLIAEWTRPIIGASDNYRDKRIMQLEFDSEKLRKKSVMDSAKNRKKKSKSGEDPTSRGSSVQTLYEQAAARRNRAAAPAQTTTDYKYAPVSNLSAVPTNARAVGVGSTLNNSEMYKRLTSRLNKKHK
binds	Sis1 (protein, UniProt P25294 1-352) MVKETKLYDLLGVSPSANEQELKKGYRKAALKYHPDKPTGDTEKFKEISEAFEILNDPQKREIYDQYGLEAARSGGPSFGPGGPGGAGGAGGFPGGAGGFSGGHAFSNEDAFNIFSQFFGGSSPFGGADDSGFSFSSYPSGGGAGMGGMPGGMGGMHGGMGGMPGGFRSASSSPTYPEEETVQVNLPVSLEDLFVGKKKSFKIGRKGPHGASEKTQIDIQLKPGWKAGTKITYKNQGDYNPQTGRRKTLQFVIQEKSHPNFKRDGDDLIYTLPLSFKESLLGFSKTIQTIDGRTLPLSRVQPVQPSQTSTYPGQGMPTPKNPSQRGNLIVKYKVDYPISLNDAQKRAIDENF

Results are given in words; binding and its absence hold for the method and conditions named. Binding seen in cells or lysates may run through a third protein. A yes stands for co-enrichment or nearness to the bait. Other partners may have been found.
